Measurements from article PMC8978020.
Results are given in words; binding and its absence hold for the method and conditions named. In cells and extracts the contact can be indirect. Some results given as binding are weak or reduced against the parent protein; the word gives no strength.

The chains behind the UniProt entries cited, without tags or fusion partners.
UniProt P04610: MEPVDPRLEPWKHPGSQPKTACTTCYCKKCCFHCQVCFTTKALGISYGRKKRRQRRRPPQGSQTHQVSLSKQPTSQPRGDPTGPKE
UniProt P12504: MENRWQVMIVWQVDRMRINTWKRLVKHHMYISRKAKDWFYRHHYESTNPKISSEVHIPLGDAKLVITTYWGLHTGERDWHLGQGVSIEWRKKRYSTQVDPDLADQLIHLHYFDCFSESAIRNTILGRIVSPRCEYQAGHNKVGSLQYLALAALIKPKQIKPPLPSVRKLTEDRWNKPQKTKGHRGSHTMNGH

Target: GST Tat fusion protein (HIV-1 (pNL4-3)) (UniProt P04610)
Experiment: pull-down; GST Tat or GST alone bound to GST beads, incubated with in vitro-translated Vif for 2 h at 4°C; Western blot with Vif-specific antiserum; only the target purified

How did the binding turn out when “In vitro-synthesized HIV-1 Vif protein (from UniProt P12504 1-192)” was run?
Its binding is “binds”.
